Source: PubChem BioAssay AID504847 (National Center for Advancing Translational Sciences (NCATS), 2011)
Screen size: about 400,000 compounds; about 3,700 (0.93%) were called active. Inconclusive means that the source gave no clear call. Such entries were picked first, then a sample of the others. Calls follow the shape of the dose curve; as a rule, active = well fitted inhibition curve with a large enough effect; inconclusive = small, poorly fitted or top-dose-only effect, or another doubt; inactive = no such curve, though single readings can be large or run the other way. Potencies of inconclusive entries are doubtful fits and often do not repeat.

Amino acid sequences for entries named in this document (tags omitted).
UniProt P11473, whole entry, looked up: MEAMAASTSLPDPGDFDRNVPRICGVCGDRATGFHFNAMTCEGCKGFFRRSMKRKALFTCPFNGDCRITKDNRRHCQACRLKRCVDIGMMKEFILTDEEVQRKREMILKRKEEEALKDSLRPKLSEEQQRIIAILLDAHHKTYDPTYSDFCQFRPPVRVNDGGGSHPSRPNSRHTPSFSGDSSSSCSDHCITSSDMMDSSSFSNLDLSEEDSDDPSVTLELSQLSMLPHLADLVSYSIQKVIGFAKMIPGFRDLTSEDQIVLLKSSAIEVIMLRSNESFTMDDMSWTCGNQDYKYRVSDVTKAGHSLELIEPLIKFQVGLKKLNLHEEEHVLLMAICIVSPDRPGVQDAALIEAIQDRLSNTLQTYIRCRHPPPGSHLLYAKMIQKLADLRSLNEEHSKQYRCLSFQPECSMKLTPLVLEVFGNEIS

Biological target: Vitamin D3 receptor (Homo sapiens) (UniProt P11473)
Experiment: Inhibitors of the vitamin D receptor (VDR): qHTS
Details: VDR-SRC2-3 peptide fluorescence polarization, 2 h; max response, negative = inhibition: active compounds read low
Procedure, shortened: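 Reagent solutions, kept cold and dark, are dispensed first; compounds are then pinned in at 23 nl, plates briefly spun, and incubated 2 h at ambient temperature. Inhibition of VDR–SRC2-3 peptide binding is read by fluorescence polarization.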
% is scaled to controls: 0 for no effect and ±100 for the full control effect; potency is read from the fitted curve at half-maximal effect.

Potency, inconclusive:
CC(N)c1ccc(Cl)cc1Cl (stereo unspecified) 79.4 µM [inhibitor, single point], CCn1c(/C(C#N)=C/c2ccccc2Cl)nc2ccccc21 25.1 µM [inhibitor, single point], COC(=O)c1cc(=O)n(Cc2ccco2)c(=Nc2ccc(F)c(Cl)c2)s1 50.1 µM [inhibitor, partial curve, poor fit], Cn1nnnc1Sc1ncnc2scc(-c3ccc(Cl)cc3)c12 89.1 µM [inhibitor, partial curve, poor fit], COc1ccccc1-c1ccc(/C=C2/C=C(CC(C)C)OC2=O)o1 100 µM [inhibitor, single point], CN(C)C(=O)c1ccc(-c2nccc(N(C)Cc3ccco3)n2)cc1 44.7 µM [inhibitor, partial curve], Cc1cccc(C(=O)NC(=S)N2CCc3ccccc3C2)c1 79.4 µM [inhibitor, single point], COC(C(=O)C(O)C(C)O)C1Cc2cc3cc(OC4CC(OC5CC(O)C(O)C(C)O5)C(O)C(C)O4)c(C)c(O)c3c(O)c2C(=O)C1OC1CC(OC2CC(OC3CC(C)(O)C(O)C(C)O3)C(O)C(C)O2)C(O)C(C)O1 (stereo unspecified) 39.8 µM [inhibitor, partial curve], CC(=O)NCCCC(=O)NNC1CC(=O)N(c2cccc(Cl)c2)C1=O (stereo unspecified) 100 µM [inhibitor, single point], N#CC1=C2SCN(Cc3ccco3)CN2C(=O)CC1c1ccc(Cl)cc1 (stereo unspecified) 89.1 µM [inhibitor, single point], CC(C)(C)c1ccc(-n2nc(C(N)=O)c(O)cc2=O)cc1 39.8 µM [inhibitor, single point], CC[C@H](C)C(=O)O[C@H]1CCC=C2C=C[C@H](C)[C@H](CC[C@@H]3C[C@H](O)CC(=O)O3)[C@H]21 31.6 µM [inhibitor, single point], CC[C@]12c3[nH]c4cc(-c5ccco5)ccc4c3CCN1C(=O)[C@@H](CC(=O)NCCc1ccccn1)C[C@@H]2C(=O)N1CCN(C(=O)c2ccco2)CC1 28.2 µM [inhibitor, partial curve, poor fit], COc1ccc(Nc2cnn(-c3nc4ccccc4s3)c(=O)c2Cl)cc1 79.4 µM [inhibitor, partial curve, poor fit], COc1ccc(N/N=C(\C#N)C(=N)SCc2ccccc2)cc1 89.1 µM [inhibitor, single point], O=C(O)C1=C[C@H](c2ccc3c(c2)OCO3)C[C@H](OCc2ccc(CO)cc2)O1 1.26 µM [inhibitor, full curve, poor fit], O=C(Cc1ccccc1)NCC(=O)N1CCN(Cc2cccc(Cl)c2)CC1 63.1 µM [inhibitor, partial curve, poor fit], Cn1nc(-c2ccc(Cl)cc2)nc2c(=O)n(C)c(=O)nc1-2 89.1 µM [inhibitor, single point], Cc1[nH]nc(C(=O)NN=Cc2ccccc2Cl)c1N=NN(C)C 89.1 µM [inhibitor, partial curve, poor fit], Cc1ccc(OC(=O)c2ccc(C)c([N+](=O)[O-])c2)cn1 63.1 µM [inhibitor, partial curve, poor fit], COc1cccc2c1C(=N)c1c(O)c3c(c(O)c1C2=O)CC(O)(C(C)=O)CC3OC1CC(N)C(O)C(C)O1 (stereo unspecified) 100 µM [inhibitor, single point], O=C(O)/C=C/c1cn(-c2ccccc2)nc1-c1ccc2c(c1)OCCO2 100 µM [inhibitor, partial curve, poor fit], COc1ccccc1-c1n[nH]c(=S)n1Cc1ccccc1 100 µM [inhibitor, partial curve, poor fit], CCCCn1c(N)c(N(CCOC)C(=O)c2ccc(-c3ccc(Cl)cc3)o2)c(=O)[nH]c1=O 70.8 µM [inhibitor, single point], CCOC(=O)C1CCN(Cc2nc3ccc([N+](=O)[O-])cc3c(=O)n2-c2ccc(OC)cc2OC)CC1 89.1 µM [inhibitor, partial curve, poor fit], COc1ccc(/C=C2\CCc3ccccc3C2=O)cc1OC 79.4 µM [inhibitor, single point], CCn1c(SCC(=O)N/N=C/C=C\c2ccco2)nc2ccccc21 100 µM [inhibitor, single point], Cn1cccc1C(=O)OCC(=O)N1CCc2ccccc21 89.1 µM [inhibitor, single point], CCn1c(Cc2ccccc2)nnc1SCC(=O)Nc1nc(C)c(C)s1 79.4 µM [inhibitor, single point], COc1ccc(C(=O)n2nc(-c3ccco3)nc2SC)cc1OC 56.2 µM [inhibitor, partial curve, poor fit], Cc1ccccc1N1CCN(S(=O)(=O)c2cccs2)CC1 100 µM [inhibitor, single point], COc1ccc2c(c1)CC/C(=C/c1ccncc1)C2=O 89.1 µM [inhibitor, single point], CC(=O)Nc1ccc(/C(C)=N/NC(=O)c2ccc(F)cc2)cc1 56.2 µM [inhibitor, single point], CCN=c1sc(C(=O)NCCc2ccccc2)cc(=O)n1CC 79.4 µM [inhibitor, partial curve], CC(C)N(C)CCOC(=O)c1ccccc1Br 89.1 µM [inhibitor, single point], CCOc1ccc(N=C2C(=O)Nc3ccc(C)c(Br)c32)cc1 15.8 µM [inhibitor, partial curve, poor fit], Cc1ccc(S(=O)(=O)N2CCN(C(=O)c3ccco3)CC2)cc1 89.1 µM [inhibitor, single point], CC1CCC2(CC1)NC(=O)N(CC(=O)Nc1ccc3c(c1)CCC3)C2=O (stereo unspecified) 89.1 µM [inhibitor, single point], Cc1ccc(/C(=N/Nc2nc3ccccc3s2)C2=C(O)c3ccccc3C2=O)cc1 56.2 µM [inhibitor, partial curve, poor fit], COc1ccccc1NC(=S)Nc1cccc2cnccc12 79.4 µM [inhibitor, single point], O=C1c2ccccc2CC1Sc1nnc(-c2ccccn2)o1 (stereo unspecified) 89.1 µM [inhibitor, single point]

Potency, active:
CCc1nc(SCC(=O)c2cccc([N+](=O)[O-])c2)n[nH]1 50.1 µM, CC(C)c1nc2sc3c(=O)[nH]c(=S)[nH]c3c2c2c1CCCC2 70.8 µM, Cc1ccc(NC(=S)NNC(=S)Nc2ccc(C)cc2)cc1 79.4 µM, CCc1oc2ccccc2c1C(=O)c1cc(I)c(O)c(I)c1 31.6 µM, Cc1nc(SCC(=O)c2cccc([N+](=O)[O-])c2)n[nH]1 25.1 µM, CC(=O)Nc1ccc(NC(=O)C2CCC(N3C(=O)C4C5C=CC(C6CC56)C4C3=O)CC2)cc1 (stereo unspecified) 20 µM, NC(=S)N/N=C/c1cn(-c2ccccc2)nc1-c1cccnc1 28.2 µM, O=C(O)c1ccc(Nc2cc(Cl)c3nonc3c2[N+](=O)[O-])cc1 20 µM, N#Cc1sc(=O)[nH]c1Cl 79.4 µM, CC(=O)Nc1ccc(SCC(=O)N(C)CC(=O)Nc2ccccc2Cl)cc1 79.4 µM

Max response, negative = inhibition, inactive:
COc1cc(C2NCC(c3ccc(Cl)cc3Cl)c3c2[nH]c2ccccc32)cc(OC)c1OC (stereo unspecified) -12.5%, CCOc1ncccc1C(=O)Nc1ccc2nc(C)sc2c1 13.7%, CCOc1ccccc1NC(=S)Nc1ncccc1C -17.9%, CC(C)(C)OC(=O)NCCCC[C@H](NC(=O)c1nc[nH]c1C(=O)NCc1ccccc1)C(=O)OC(C)(C)C -15.6%, CC(C)(C)NC(=O)[C@H]1CN(Cc2cccnc2)CCN1C[C@@H](O)C[C@@H](Cc1ccccc1)C(=O)N[C@H]1c2ccccc2C[C@H]1O -5.7%, CCC(=O)Nc1ccc(S(=O)(=O)Nc2cc(C)on2)cc1 -2.7%, Cc1oc2c(O)c(O)ccc2c(=O)c1-c1ccc(Cl)cc1 -18.2%, CCCOc1ccc(C(=O)NNC(=S)NC(=O)c2cccs2)cc1 -20.9%, NNC(=O)c1c[nH]c2ccc(OCc3ccccc3)cc12 13.4%, COc1cccc(N2CC(C(=O)Nc3nnc(SCC(=O)N4CCOCC4)s3)CC2=O)c1 (stereo unspecified) -11.8%, Cc1ccc(CNC(=O)C2CC(c3cc(C(F)(F)F)cc(C(F)(F)F)c3)=NO2)o1 (stereo unspecified) -24.8%, Cc1ccc(-n2c(CCc3ccccc3)nnc2SCC(=O)NCc2ccccc2)cc1C -0.622%, O=C1c2c(O)cc(O)cc2O[C@H](c2ccc(O)c(O)c2)[C@H]1O 0.0902%, COc1ccc(Nc2oc(COc3ccc(C)cc3)nc2C#N)cc1 11.2%, CCOc1ccccc1NC(=O)N1CCC(NC(=O)c2cccc(C)c2)CC1 11.1%
